Measurements taken from article PMC3226675.
Results are given in words; binding and its absence hold for the method and conditions named. In cells and extracts the contact can be indirect. Some entries that bind do so weakly or less than the wild type.

T1: endogenous Stau2 (HeLa cells) (human (endogenous in HeLa)) (UniProt Q9NUL3)
T1 sequence: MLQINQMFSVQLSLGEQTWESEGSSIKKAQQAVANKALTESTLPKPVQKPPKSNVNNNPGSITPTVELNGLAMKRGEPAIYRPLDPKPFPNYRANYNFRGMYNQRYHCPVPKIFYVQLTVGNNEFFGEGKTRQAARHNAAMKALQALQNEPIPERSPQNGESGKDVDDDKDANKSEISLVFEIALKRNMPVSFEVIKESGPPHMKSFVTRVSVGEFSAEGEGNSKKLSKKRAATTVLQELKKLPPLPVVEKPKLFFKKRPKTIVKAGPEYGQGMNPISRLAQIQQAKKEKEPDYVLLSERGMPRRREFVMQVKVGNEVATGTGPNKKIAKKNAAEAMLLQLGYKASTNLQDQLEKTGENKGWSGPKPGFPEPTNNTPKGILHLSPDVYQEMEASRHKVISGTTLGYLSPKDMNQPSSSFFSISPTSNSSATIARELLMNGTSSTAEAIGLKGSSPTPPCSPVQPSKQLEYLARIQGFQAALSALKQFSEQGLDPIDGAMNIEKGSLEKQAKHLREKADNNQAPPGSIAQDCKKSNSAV


Biological target: T1, endogenous Stau2 (HeLa cells) (human (endogenous in HeLa))
Test: co-IP; HeLa lysate treated with RNase A (20 ug/ml); rabbit anti-hStau2 antibody or rabbit IgG, Protein G Sepharose; 20 mM Tris-HCl pH 7.5, 150 mM NaCl, 1 mM DTT, 0.5% Tween 20; Western blotting

binding	Binder
binds	Upf1, endogenous in HeLa cells (protein, UniProt Q92900 1-1129) MSVEAYGPSSQTLTFLDTEEAELLGADTQGSEFEFTDFTLPSQTQTPPGGPGGPGGGGAGGPGGAGAGAAAGQLDAQVGPEGILQNGAVDDSVAKTSQLLAELNFEEDEEDTYYTKDLPIHACSYCGIHDPACVVYCNTSKKWFCNGRGNTSGSHIVNHLVRAKCKEVTLHKDGPLGETVLECYNCGCRNVFLLGFIPAKADSVVVLLCRQPCASQSSLKDINWDSSQWQPLIQDRCFLSWLVKIPSEQEQLRARQITAQQINKLEELWKENPSATLEDLEKPGVDEEPQHVLLRYEDAYQYQNIFGPLVKLEADYDKKLKESQTQDNITVRWDLGLNKKRIAYFTLPKTDSGNEDLVIIWLRDMRLMQGDEICLRYKGDLAPLWKGIGHVIKVPDNYGDEIAIELRSSVGAPVEVTHNFQVDFVWKSTSFDRMQSALKTFAVDETSVSGYIYHKLLGHEVEDVIIKCQLPKRFTAQGLPDLNHSQVYAVKTVLQRPLSLIQGPPGTGKTVTSATIVYHLARQGNGPVLVCAPSNIAVDQLTEKIHQTGLKVVRLCAKSREAIDSPVSFLALHNQIRNMDSMPELQKLQQLKDETGELSSADEKRYRALKRTAERELLMNADVICCTCVGAGDPRLAKMQFRSILIDESTQATEPECMVPVVLGAKQLILVGDHCQLGPVVMCKKAAKAGLSQSLFERLVVLGIRPIRLQVQYRMHPALSAFPSNIFYEGSLQNGVTAADRVKKGFDFQWPQPDKPMFFYVTQGQEEIASSGTSYLNRTEAANVEKITTKLLKAGAKPDQIGIITPYEGQRSYLVQYMQFSGSLHTKLYQEVEIASVDAFQGREKDFIILSCVRANEHQGIGFLNDPRRLNVALTRARYGVIIVGNPKALSKQPLWNHLLNYYKEQKVLVEGPLNNLRESLMQFSKPRKLVNTINPGARFMTTAMYDAREAIIPGSVYDRSSQGRPSSMYFQTHDQIGMISAGPSHVAAMNIPIPFNLVMPPMPPPGYFGQANGPAAGRGTPKGKTGRGGRQKNRFGLPGPSQTNLPNSQASQDVASQPFSQGALTQGYISMSQPSQMSQPGLSQPELSQDSYLGDEFKSQIDVALSQDSTYQGERAYQHGGVTGLSQY
binds	Mov10, endogenous in HeLa cells (protein, UniProt Q9HCE1 1-1003) MPSKFSCRQLREAGQCFESFLVVRGLDMETDRERLRTIYNRDFKISFGTPAPGFSSMLYGMKIANLAYVTKTRVRFFRLDRWADVRFPEKRRMKLGSDISKHHKSLLAKIFYDRAEYLHGKHGVDVEVQGPHEARDGQLLIRLDLNRKEVLTLRLRNGGTQSVTLTHLFPLCRTPQFAFYNEDQELPCPLGPGECYELHVHCKTSFVGYFPATVLWELLGPGESGSEGAGTFYIARFLAAVAHSPLAAQLKPMTPFKRTRITGNPVVTNRIEEGERPDRAKGYDLELSMALGTYYPPPRLRQLLPMLLQGTSIFTAPKEIAEIKAQLETALKWRNYEVKLRLLLHLEELQMEHDIRHYDLESVPMTWDPVDQNPRLLTLEVPGVTESRPSVLRGDHLFALLSSETHQEDPITYKGFVHKVELDRVKLSFSMSLLSRFVDGLTFKVNFTFNRQPLRVQHRALELTGRWLLWPMLFPVAPRDVPLLPSDVKLKLYDRSLESNPEQLQAMRHIVTGTTRPAPYIIFGPPGTGKTVTLVEAIKQVVKHLPKAHILACAPSNSGADLLCQRLRVHLPSSIYRLLAPSRDIRMVPEDIKPCCNWDAKKGEYVFPAKKKLQEYRVLITTLITAGRLVSAQFPIDHFTHIFIDEAGHCMEPESLVAIAGLMEVKETGDPGGQLVLAGDPRQLGPVLRSPLTQKHGLGYSLLERLLTYNSLYKKGPDGYDPQFITKLLRNYRSHPTILDIPNQLYYEGELQACADVVDRERFCRWAGLPRQGFPIIFHGVMGKDEREGNSPSFFNPEEAATVTSYLKLLLAPSSKKGKARLSPRSVGVISPYRKQVEKIRYCITKLDRELRGLDDIKDLKVGSVEEFQGQERSVILISTVRSSQSFVQLDLDFNLGFLKNPKRFNVAVTRAKALLIIVGNPLLLGHDPDWKVFLEFCKENGGYTGCPFPAKLDLQQGQNLLQGLSKLSPSTSGPHSHDYLPQEREGEGGLSLQVEPEWRNEL
